For 1 molecule, binding results are on record in paper PMC11021398.

Protein sequences, listed by entry. Tags and fused reporters are not part of them.
UniProt Q00987: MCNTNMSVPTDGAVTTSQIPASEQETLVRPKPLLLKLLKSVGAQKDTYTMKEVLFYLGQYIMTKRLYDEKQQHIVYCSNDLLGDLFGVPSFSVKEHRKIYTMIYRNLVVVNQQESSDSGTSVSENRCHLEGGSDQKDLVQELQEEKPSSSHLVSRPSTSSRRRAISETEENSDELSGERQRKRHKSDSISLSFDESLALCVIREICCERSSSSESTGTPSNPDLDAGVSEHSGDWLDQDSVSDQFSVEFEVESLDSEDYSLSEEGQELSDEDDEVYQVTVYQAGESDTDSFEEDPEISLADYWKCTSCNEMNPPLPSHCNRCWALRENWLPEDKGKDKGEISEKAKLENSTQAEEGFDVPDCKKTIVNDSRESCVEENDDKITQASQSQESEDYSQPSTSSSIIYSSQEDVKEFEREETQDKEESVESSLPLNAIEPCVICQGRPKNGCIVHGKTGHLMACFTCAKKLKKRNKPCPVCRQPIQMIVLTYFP

No constants are given. Whether binding was seen depends on the method and setting. In cells and extracts the contact can be indirect. Some results given as binding are weak or reduced against the parent protein; the word gives no strength.

The target in the assay is MDM2 (human (endogenous in MNNG HOS)) (UniProt Q00987). Nature of the assay: co-IP; MNNG HOS cells lysed in IP lysis buffer; 1.0 mg protein incubated with the antibody at 4 °C overnight, then with 20 μL beads at 4 °C for 2 h; washed twice; western blot. For orientation: Immunoblotting shows a protein as a band on a membrane.

B1: DNA polymerase epsilon 2 (POLE2) (protein, UniProt P56282 1-527)
chain: MAPERLRSRALSAFKLRGLLLRGEAIKYLTEALQSISELELEDKLEKIINAVEKQPLSSNMIERSVVEAAVQECSQSVDETIEHVFNIIGAFDIPRFVYNSERKKFLPLLMTNHPAPNLFGTPRDKAEMFRERYTILHQRTHRHELFTPPVIGSHPDESGSKFQLKTIETLLGSTTKIGDAIVLGMITQLKEGKFFLEDPTGTVQLDLSKAQFHSGLYTEACFVLAEGWFEDQVFHVNAFGFPPTEPSSTTRAYYGNINFFGGPSNTSVKTSAKLKQLEEENKDAMFVFLSDVWLDQVEVLEKLRIMFAGYSPAPPTCFILCGNFSSAPYGKNQVQALKDSLKTLADIICEYPDIHQSSRFVFVPGPEDPGFGSILPRPPLAESITNEFRQRVPFSVFTTNPCRIQYCTQEITVFREDLVNKMCRNCVRFPSSNLAIPNHFVKTILSQGHLTPLPLYVCPVYWAYDYALRVYPVPDLLVIADKYDPFTTTNTECLCINPGSFPRSGFSFKVFYPSNKTVEDSKLQGF
Consider B1, for which the binding result is “binds”.
